Test results reported in PMC12752606, “METTL10‐Mediated PIAS3 Methylation Links Purine Metabolism to Gastric Cancer Progression” (Advanced Science, 2025).
No constants are given. Whether binding was seen depends on the method and setting. Binding seen in cells or lysates may run through a third protein. Some results given as binding are weak or reduced against the parent protein; the word gives no strength. For part of these data: Where a sequence is shown, tags or fusion partners need not be part of it.

Chains of the proteins cited; added tags and fusions are not shown. Lines headed by an entry give the natural chain unless they say otherwise; changes in a name come on top. A line that says so, or that is headed by a name, gives the form on record, which may keep a tag or linker.
UniProt O75030: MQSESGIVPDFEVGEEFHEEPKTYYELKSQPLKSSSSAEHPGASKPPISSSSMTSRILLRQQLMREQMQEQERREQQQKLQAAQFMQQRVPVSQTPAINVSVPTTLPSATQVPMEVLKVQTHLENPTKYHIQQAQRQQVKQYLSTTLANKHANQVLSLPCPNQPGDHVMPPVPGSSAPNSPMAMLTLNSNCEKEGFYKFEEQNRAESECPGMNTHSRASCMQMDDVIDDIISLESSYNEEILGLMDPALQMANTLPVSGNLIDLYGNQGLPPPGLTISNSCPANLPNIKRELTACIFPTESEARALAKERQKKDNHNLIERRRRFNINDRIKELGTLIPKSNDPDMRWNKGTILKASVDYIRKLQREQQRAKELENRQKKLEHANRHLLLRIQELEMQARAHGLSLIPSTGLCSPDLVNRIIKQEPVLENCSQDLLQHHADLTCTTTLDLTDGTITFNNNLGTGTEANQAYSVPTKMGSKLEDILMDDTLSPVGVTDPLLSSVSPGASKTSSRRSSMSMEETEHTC
Myc-METTL10 (Q5JPI9-1, form named): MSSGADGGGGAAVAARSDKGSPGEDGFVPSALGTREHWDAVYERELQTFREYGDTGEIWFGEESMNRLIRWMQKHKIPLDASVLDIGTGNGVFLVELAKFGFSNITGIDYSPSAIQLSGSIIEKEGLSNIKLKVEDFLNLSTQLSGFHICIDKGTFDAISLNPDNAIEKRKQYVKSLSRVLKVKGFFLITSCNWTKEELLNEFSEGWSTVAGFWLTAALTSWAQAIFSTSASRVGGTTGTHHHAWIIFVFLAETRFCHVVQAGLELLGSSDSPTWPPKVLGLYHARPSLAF

Columns and labels:
Flag-PIAS3 = target: T1, Flag-PIAS3 (UniProt Q9Y6X2); experiment: co-IP; HEK293T co-transfected with Myc-METTL10, HA-MITF and Flag-PIAS3 (GC cells too, Figure S3e); with or without METTL10 overexpressed
T1 sequence: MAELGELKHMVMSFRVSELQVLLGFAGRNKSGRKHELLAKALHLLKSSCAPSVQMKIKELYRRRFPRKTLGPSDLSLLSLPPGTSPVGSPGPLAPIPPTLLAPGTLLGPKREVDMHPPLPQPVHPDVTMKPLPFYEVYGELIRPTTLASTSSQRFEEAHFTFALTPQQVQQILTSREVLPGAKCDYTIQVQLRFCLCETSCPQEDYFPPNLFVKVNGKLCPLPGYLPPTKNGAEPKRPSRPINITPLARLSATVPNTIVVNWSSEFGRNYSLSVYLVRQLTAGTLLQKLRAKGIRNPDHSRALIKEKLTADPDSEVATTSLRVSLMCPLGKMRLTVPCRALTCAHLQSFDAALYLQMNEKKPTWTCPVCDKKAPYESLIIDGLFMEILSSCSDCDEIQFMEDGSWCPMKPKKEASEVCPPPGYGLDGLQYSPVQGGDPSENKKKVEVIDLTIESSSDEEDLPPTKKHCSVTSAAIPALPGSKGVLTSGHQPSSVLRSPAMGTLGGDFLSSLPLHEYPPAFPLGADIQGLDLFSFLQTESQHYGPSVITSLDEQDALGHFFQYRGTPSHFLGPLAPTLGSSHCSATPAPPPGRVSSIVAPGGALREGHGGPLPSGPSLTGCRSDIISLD

[1] = target: T2, PIAS3, endogenous (human (endogenous in MKN45, AGS, HEK293T)) (UniProt Q9Y6X2); experiment: co-IP; MKN45 and AGS cells with METTL10 knocked down (Figure S3h) or overexpressed (Figure S3i)
T2 sequence: T1 sequence

Row | binding (Flag-PIAS3) | binding [1] | Substance
1 | binds |  | HA-MITF (microphthalmia-associated transcription factor) (from UniProt O75030 1-526)
2 |  | binds | MITF in MKN45 and AGS cells (from UniProt O75030 1-526)
3 | binds |  | Myc-METTL10 (from UniProt Q5JPI9-1 1-291) (enzyme)
